Results: US20090227493A1, “COMBINED DRUG FOR TREATING DIABETES” (DAIICHI SANKYO COMPANY, LIMITED, priority 2005, published 2009)
At least one compound was matched to its structure with a doubt left.

Test system: diabetic obese rats (male ZDF rats)
Assay: Test Example 2: effect of combined use of various GLP-1 receptor agonists and compound A, same manner as Test Example 1
Conditions: combined use with compound A

Q: For `CCCCCCCCCCCCCCCC(=O)N[C@@H](CCC(=O)NCCCC[C@H](NC(=O)[C@H](C)NC(=O)[C@H](C)NC(=O)[C@H](CCC(N)=O)NC(=O)CNC(=O)[C@H](CCC(=O)O)NC(=O)[C@H](CC(C)C)NC(=O)[C@H](Cc1ccc(O)cc1)NC(=O)[C@H](CO)NC(=O)[C@H](CO)NC(=O)[C@@H](NC(=O)[C@H](CC(=O)O)NC(=O)[C@H](CO)NC(=O)[C@@H](NC(=O)[C@H](Cc1ccccc1)NC(=O)[C@@H](NC(=O)CNC(=O)[C@H](CCC(=O)O)NC(=O)[C@H](C)NC(=O)[C@@H](N)Cc1cnc[nH]1)[C@@H](C)O)[C@@H](C)O)C(C)C)C(=O)N[C@@H](CCC(=O)O)C(=O)N[C@@H](Cc1ccccc1)C(=O)N[C@H](C(=O)N[C@@H](C)C(=O)N[C@@H](Cc1c[nH]c2ccccc12)C(=O)N[C@@H](CC(C)C)C(=O)N[C@H](C(=O)N[C@@H](CCCNC(=N)N)C(=O)NCC(=O)N[C@@H](CCCNC(=N)N)C(=O)NCC(=O)O)C(C)C)[C@@H](C)CC)C(=O)O` [Arg^34 Lys^26(N^6-(γ-L-glutamyl(N^α-palmitoyl))) GLP-1 (7-37)], which “decrease in HbA1c levels” value is on record?
A: The value was “synergistic effect”.

Q: What about the pancreatic insulin content of the same molecule?
A: The pancreatic insulin content was “marked increase”.
